The values below come from the odorant receptor screen of Mainland et al. (2015).

Some of the results follow. Each value is one well over the wells without odorant, computed here; the data are noisy.

What all share (experiment): odorant receptor activation (CRE luciferase / Renilla) (fold of no-odor wells); higher = more activation
What all share (conditions): 100 µM

Assay [1] relates to OR7C2 clone 1292.
The subject of assay [2] is OR7D2 clone 1405.
Assay [3] concerns OR7D4 clone 1298.
For assay [4], the system named is OR7E24 P242S clone 1314.
The subject of assay [5] is OR7G1 clone 1295.
Assay [6] deals with OR7G2 V263A/F281V clone 1312.
The test system of assay [7] is OR7G2 clone 1475.
For assay [8], the system named is OR7G3 clone 1297.
In assay [9] the test system is OR8A1 clone 1503.
For assay [10], the system named is OR8B12 clone 1731.
For assay [11], the system named is OR8B3 H20R/Q24R/V34I/M114I clone 1727.
In assay [12] the test system is OR8B4 E22G clone 1227.
Assay [13] has as its system OR8B4 Y131H/C140F/C178R clone 1440.
Assay [14] relates to OR8B8 clone 1226.
In assay [15] the test system is OR8B8 clone 1504.
The test system of assay [16] is OR8D1 clone 1142.
Assay [17] has as its system OR8D2 clone 1179.
In assay [18] the test system is OR8D4 C120Y/R133K/F200L/L283P/R298K clone 1072.
In assay [19] the test system is OR8G1 clone 1395.
The subject of assay [20] is OR8G5 clone 1323.

Take `CC(=O)OC(C)(C)C1CC=C(C)CC1` (stereo not given) [terpinyl acetate]: the odorant receptor activation in [1] worked out at 0.706; in [2], 0.958; in [3] it was 0.89; in assay [4] it was 0.816; in [5], 0.775; in [6], 0.898. For the same compound, the odorant receptor activation in assay [7] came to 0.739; in assay [8], 0.839; in assay [9], 0.959; in [10], 0.843; in [11] it was 0.163; in [12] it was 1.48. Moreover, the odorant receptor activation in assay [13] was 0.869; in [14] it was 1.12; in assay [15], 1.02; in [16] it was 1.23; in assay [17], 1.19; in assay [18] it was 1.36. Also, the odorant receptor activation in assay [19] worked out at 0.844; in assay [20] it was 0.828.
Take `COc1cc(C)ccc1O` [2-methoxy-4-methylphenol]: the odorant receptor activation amounted to 1.25 in assay [1]; 0.977 in assay [2]; 0.831 in [3]; 0.993 in assay [4]; 1.27 in assay [5]; 1.16 in assay [6]. Besides, the odorant receptor activation turned out to be 0.796 in assay [7]; 0.694 in assay [8]; 0.938 in [9]; 0.912 in [10]; 0.563 in assay [11]; 1.22 in assay [12]. The odorant receptor activation in assay [13] is 1.02; in assay [14], 1.13; in assay [15], 0.901; in assay [16], 0.971; in assay [17], 0.689; in assay [18], 1.92. Also, the odorant receptor activation in assay [19] worked out at 1.68; in assay [20] it was 1.1.
Consider `CC12CCC(C1)C(C)(C)C2=O` (stereo not given) [fenchone], for which the odorant receptor activation was found to be 0.972 in assay [1]; 1.15 in assay [2]; 1 in [3]; 0.99 in [4]; 1.05 in assay [5]; 1.09 in assay [6]. The odorant receptor activation in assay [7] was 0.806; in [8] it was 1; in assay [9], 1.28; in [10], 0.914; in assay [11], 0.66; in [12] it was 0.996. The odorant receptor activation in [13] worked out at 1.06; in assay [14] it was 0.797; in assay [15], 1.05; in assay [16] it was 1.23; in assay [17], 0.848; in assay [18], 1.08. For the same compound, the results for the odorant receptor activation in assay [19] and in assay [20] were 0.88 and 1.02, respectively.
For `c1ccc(Oc2ccccc2)cc1` [diphenyl ether], the odorant receptor activation in [1] turned out to be 1.04; in assay [2], 0.868; in assay [3], 1.08; in assay [4] it was 0.885; in assay [5], 1.08; in assay [6], 0.875. In addition, the odorant receptor activation in assay [7] came to 0.857; in [8], 1.04; in [9] it was 1.34; in assay [10], 0.777; in assay [11], 0.448; in assay [12], 0.991. Further, the odorant receptor activation in assay [13] turned out to be 1.13; in [14], 0.912; in [15], 1.11; in assay [16], 1.24; in [17], 0.963; in assay [18] it was 1.03. Also, the odorant receptor activation in assay [19] came out at 1.08; in assay [20] it was 1.03.
On to `CCCCCCCC=CC=O` [2-decenal], for which the odorant receptor activation in [1] was 0.896; in assay [2], 2; in [3], 1.22; in assay [4], 0.996; in assay [5], 1.57; in assay [6], 1.34. In addition, the odorant receptor activation in assay [7] turned out to be 1.32; in [8], 0.855; in assay [9] it was 1.47; in assay [10], 0.97; in assay [11], 0.381; in [12], 1.47. In addition, the odorant receptor activation in [13] turned out to be 1.19; in [14], 0.884; in assay [15] it was 2.58; in [16], 1.07; in [17], 0.978; in assay [18] it was 3.46. In addition, the odorant receptor activation in [19] was 2.74; in assay [20], 0.772.
On to `C=CC(C)(O)CCC=C(C)C` (stereo not given) [linalool], for which the odorant receptor activation was found to be 1.12 in [1]; 0.851 in assay [2]; 0.906 in [3]; 0.813 in [4]; 1.23 in assay [5]; 0.804 in assay [6]. Also, the odorant receptor activation was 1.2 in assay [7]; 0.865 in [8]; 0.784 in assay [9]; 1.1 in assay [10]; 0.846 in assay [11]; 1.12 in assay [12]. The odorant receptor activation in assay [13] stood at 1.15; in assay [14] it was 1.15; in assay [15] it was 0.806; in assay [16], 1.03; in assay [17] it was 0.885; in [18] it was 1.09. In addition, the odorant receptor activation in [19] came out at 1.02; in assay [20] it was 0.972.
As to `C=CCSCC=C` [diallyl sulfide], the odorant receptor activation in [1] amounted to 0.931; in [2] it was 0.98; in assay [3], 0.879; in assay [4], 0.905; in assay [5], 0.936; in [6], 0.957. Besides, the odorant receptor activation in assay [7] was found to be 0.891; in assay [8] it was 1.02; in assay [9] it was 1.4; in assay [10], 0.83; in [11], 0.531; in assay [12] it was 1.04. Also, the odorant receptor activation in [13] amounted to 1.3; in assay [14], 0.971; in assay [15] it was 1.26; in [16], 1.08; in [17], 1.24; in assay [18] it was 0.977. Besides, the odorant receptor activation is 1.34 in assay [19] and 1.1 in [20].
